Percent effect of library compounds

Source: ChEMBL document CHEMBL3988442, “University of Dundee, Small-Polar-MMV Screening Library” (2021).

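Growth of Mycobacterium tuberculosis over 4 days (cholesterol / DPPC medium with tyloxapol); the read-out is not stated. Concentration: 50 µM. Higher reads as more growth inhibition (inferred: compounds with an IC50 in retests scored well above the rest). About 69,000 compounds were tested under these conditions; 0.54% (about 370) showed 50% or more at least once.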

Each number is a percent effect as filed.
How 0% and 100% were set is not recorded. Most values in the screen are low, and negative values occur.
Compounds were drawn at random from those tested, without regard to their results.
Two or more numbers in one place are separate tests of the same structure; such repeats can differ widely.

compound | effect
O=C(O)C(F)(F)F.O=C1NCC[C@]12CN(Cc1nccs1)C[C@H]2c1ccccc1 | -10.23
Cc1cc(C)n(C2CCN(Cc3c(-c4cc(C)on4)nn(C)c3Cl)C2)n1 (stereo not given) | -18.15
CCOc1ccccc1-n1c(CNC)n[nH]c1=O | -22.06
O=C(Cn1nc2c(cc1=O)CCCC2)N[C@@H](Cc1ccccc1)C(=O)O | -23.09
CN(C)C(=O)COC1COC2(CCN(S(C)(=O)=O)CC2)C1 (stereo not given) | -29.87
O=C(Cn1nc(Br)nc1Br)N1CCOCC1 | -17.49
O=S(=O)(Cc1ccccc1)NCCc1nnc2n1CCC2 | -23.29
Cc1cnc(C(C)(C)NC(=O)NCc2ccon2)s1 | 22.17
O=C(NCCSc1ccccc1)[C@H]1CNC[C@H](C(=O)N2CCOCC2)C1 | 15.39
CC(=O)N1CCCC1c1cc(Nc2nnc(C)s2)nc(C)n1 (stereo not given) | -5.595
COc1cc(NC(=O)NCCO)ccc1N1CCOC1=O | -5.45
CCc1nnc2n1CC(CNc1cnc3ccccc3n1)CC2 (stereo not given) | -7.778
O=C1CC2(CCCCN2C(=O)c2ccsc2)CN1CC1CC1 (stereo not given) | 11.93
CC(C)(C)c1ncc(S(C)(=O)=O)c(C2CCCNC2)n1 (stereo not given) | -0.2497
CN1C(=O)CC(C(=O)O)C12CCN(c1ccc3c(n1)CCCC3)CC2 (stereo not given) | 18.78
O=S1(=O)CCC(n2nc(COc3ccccc3)nc2-c2cnccn2)C1 (stereo not given) | -3.583 & -9.436
CCS(=O)(=O)N1CCC(CSc2ccccc2)C1 (stereo not given) | -4.101
COc1ccc(-c2ccnc3nc(N4CCCC4)[nH]c(=O)c23)cc1OC | -5.017
CC(Cn1cccn1)NC(=O)Nc1nnc(C2CC2)s1 (stereo not given) | -26.92
NC(=O)CS(=O)(=O)Cc1ccc(OCc2ccc(F)cc2)cc1 | 20.57
CSc1ccccc1C(=O)Nc1ccc(OC2CCN(C)CC2)cc1 | 8.944 & 33.71
O=C(c1nn(-c2ccccc2F)cc1O)N1CCCC1 | -2.36
COC(=O)[C@@H]1Cc2ncn(C(C)C)c2CN1S(=O)(=O)Cc1ccccc1 | -26.79
Cc1sc(Br)cc1S(=O)(=O)NCCCN.Cl | -1.38
CCCOCC(=O)N1CCCC(c2nnc(CN3CCCCC3)n2C)C1 (stereo not given) | -28.71
Cc1noc(C)c1CSC1CCCN(c2cnn(C)c2)C1=O (stereo not given) | -9.385
O=C(O)C(F)(F)F.O=C(O)C(F)(F)F.O=C(c1cccnc1)N1CCC[C@]2(C[C@H](Oc3ncccc3F)CO2)C1 | -3.429
COc1ccc(CN(C(=O)C2CCOCC2)c2ccncc2)cc1 | -2.895
NC(=O)C1CCN(C(=O)NC2CCN(CC3CCCC3)C2)CC1 (stereo not given) | 3.918
COc1ccc(CCNC(=O)CN2CCOCS2(=O)=O)cc1 | -19.11
c1nc(C2CCCCO2)ncc1CN1CCOCC1 (stereo not given) | -4.709
Cc1cnc(N2CCC3(CCN(CC4CC4)C3=O)CC2)nc1 | -13.04
Cc1c(C(=O)N(CCN(C)C)Cc2ccccn2)oc2ccccc12 | -1.21
c1ccc(COC2CCN(Cc3cc4n(n3)CCCNC4)CC2)nc1 | -9.786
O=C(O)C(F)(F)F.O=C(O)C(F)(F)F.[H][C@@]12CCCO[C@]1([H])[C@H](OCc1ccccn1)CN2Cc1c(C)noc1C | -27.98
O=C(C1CCOCC1)N1CC[C@@H](O)[C@@H]1Cc1ccncc1 | -14.86 & -8.834
COCCCNC(=O)C1(NC(=O)c2ccc3[nH]ncc3c2)CCCC1 | -4.22
CCN1CCN(c2ccc(F)cc2C(C)NCc2ccccn2)CC1 (stereo not given) | -21.52
[H][C@@]12COC[C@@H](C(=O)NC)[C@]1([H])CN(C(=O)c1ccc(C)c(F)c1)C2 | 19.44
Cc1nn(-c2ccccc2Cl)c(C)c1CCC(=O)NCCS(C)(=O)=O | -6.067
Cc1cc(=O)n2c(n1)SCC2CC(=O)NCc1cc(-c2ccco2)on1 (stereo not given) | -9.624
CC(C)c1n[nH]c(C2CN(CCc3cccs3)CCO2)n1 (stereo not given) | 3.405
O=S(=O)(Cc1ccc(F)cc1F)NCCOc1cccnc1 | 11.08
Cc1noc(C)c1CN1CCn2cc(CNc3ccccn3)nc2C1.O=C(O)C(F)(F)F.O=C(O)C(F)(F)F | -16.6
Cn1cnnc1SCC(=O)NC1CC(=O)N(CCc2cccc(Cl)c2)C1 (stereo not given) | 15
O=C(c1cccn1-c1ccc2c(c1)OCCO2)N1CCCC1 | -2.22
O=C(O)C(F)(F)F.O=C(O)C(F)(F)F.O=C(c1cscn1)N1CCC2(CN(Cc3ccncc3)C2)C1 | 8.678
Cc1cncc(C2CCCN(C(=O)c3cnco3)C2)n1 (stereo not given) | -13.68
Cc1ccc(-c2cc(CNC(=O)N3CCCN(C)CC3)on2)cc1 | -1.05
CSCc1cc(F)ccc1CNCc1cccc(O)c1 | 7.353
CC(=O)c1cn(CC(=O)NC(C(=O)O)C(C)C)c2ccccc12 (stereo not given) | 3.551
CC(C)N1CC(c2ccnc(Nc3nccs3)n2)C1 | -9.144 & -13.05

Some entries from above, unchanged:

compound,effect
Cc1cnc(N2CCC3(CCN(CC4CC4)C3=O)CC2)nc1,-13.04
O=C(O)C(F)(F)F.O=C(O)C(F)(F)F.O=C(c1cccnc1)N1CCC[C@]2(C[C@H](Oc3ncccc3F)CO2)C1,-3.429
O=C(c1nn(-c2ccccc2F)cc1O)N1CCCC1,-2.36
O=C(Cn1nc2c(cc1=O)CCCC2)N[C@@H](Cc1ccccc1)C(=O)O,-23.09